From paper PMC10073124
These are yes or no findings as the source states them, for the method shown. In cells and extracts the contact can be indirect. Some binding calls cover weakened binding; strength is not graded here.

By UniProt entry, the sequences of proteins in these tests, tags left out.
UniProt P01101: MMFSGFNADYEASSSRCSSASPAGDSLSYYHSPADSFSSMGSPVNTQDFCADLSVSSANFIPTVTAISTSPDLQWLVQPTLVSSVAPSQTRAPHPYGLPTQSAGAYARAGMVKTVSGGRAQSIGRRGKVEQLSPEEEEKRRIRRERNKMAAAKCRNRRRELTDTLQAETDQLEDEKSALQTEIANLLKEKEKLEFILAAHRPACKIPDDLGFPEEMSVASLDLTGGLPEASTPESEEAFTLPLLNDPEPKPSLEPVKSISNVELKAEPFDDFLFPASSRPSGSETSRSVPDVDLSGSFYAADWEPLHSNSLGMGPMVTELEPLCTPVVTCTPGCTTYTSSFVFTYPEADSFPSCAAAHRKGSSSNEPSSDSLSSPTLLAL

Molecular target: T1, Four and a half LIM domains 2 (FHL2) (mouse (endogenous in primary granulosa cells)) (UniProt O70433)
T1 sequence: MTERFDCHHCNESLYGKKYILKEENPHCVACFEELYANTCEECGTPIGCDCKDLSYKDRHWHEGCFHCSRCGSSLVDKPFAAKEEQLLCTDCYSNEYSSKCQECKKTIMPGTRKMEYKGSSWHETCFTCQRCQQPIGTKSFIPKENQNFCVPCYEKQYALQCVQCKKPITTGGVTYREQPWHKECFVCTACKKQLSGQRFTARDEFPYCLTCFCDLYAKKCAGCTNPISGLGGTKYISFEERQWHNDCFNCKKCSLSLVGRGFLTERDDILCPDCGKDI
Test: co-IP; granulosa cell lysates incubated overnight with rabbit anti-FHL2 antibody or normal rabbit IgG; protein A/G agarose beads, 30 min at 4 °C; five washes with cell lysis buffer; western blot with anti-NF-κB and anti-AP-1 antibodies

Substance: c-fos (AP-1 transcription factor) (from UniProt P01101 1-380)
- binding: binds
